{"source": "the supplement of paper PMC8975748", "note": "Structures can show the parent of a compound that is named as a salt. ± gives the standard deviation of the averaged measurements. Some of the results follow. These are raw signals, not scaled to a control.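 The yeast community starts from one strain carrying four plasmids, each with an amino-acid or uracil synthesis gene and a fluorescent protein. Random plasmid loss creates mixed prototroph and auxotroph subpopulations. Cells were fixed and counted by automated confocal fluorescence imaging, and DMSO-treated wells served as the vehicle reference.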"}
{"system": "Saccharomyces cerevisiae BY4741 SeMeCo community", "assay": "imaged cell count per well (cells); higher = more cells", "details": "10 µM; 24 h; SM minimal medium", "method": "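Same SeMeCo high-content imaging drug screen: Selleck FDA-approved drugs at 10 µM, 24 h in SM medium, 384-well plates, 3 replicates.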"}
{"smiles": "C=CCN1C[C@H](C(=O)N(CCCN(C)C)C(=O)NCC)C[C@@H]2c3cccc4[nH]cc(c34)C[C@H]21", "note": "[Cabergoline]", "imaged cell count per well": "25500 ± 2100"}
{"smiles": "O=C(O[C@H]1C[C@H]2CC[C@@H](C1)[N+]21CCCC1)C(O)(c1ccccc1)c1ccccc1", "note": "[Trospium chloride]", "imaged cell count per well": "21200 ± 2400"}
{"smiles": "Oc1cc(Cl)ccc1Oc1ccc(Cl)cc1Cl", "note": "[Triclosan]", "imaged cell count per well": "12700 ± 4900"}
{"smiles": "C[C@@H]1[C@H](O)[C@@H](C)/C=C/C=C/CC/C=C/C=C/C=C/C=C/[C@H](O[C@H]2O[C@@H](C)[C@H](O)[C@@H](N)[C@H]2O)C[C@@H]2O[C@](O)(C[C@@H](O)[C@H](O)CC[C@@H](O)C[C@@H](O)C[C@@H](O)CC(=O)O[C@H]1C)C[C@H](O)[C@H]2C(=O)O", "note": "[Nystatin (Fungicidin)]", "imaged cell count per well": "3040 ± 100"}
{"smiles": "CC(=O)O[C@H]1C[C@@H]2CC[C@@H]3[C@H](CC[C@@]4(C)[C@H]3C[C@H]([N+]3(C)CCCCC3)[C@@H]4OC(C)=O)[C@@]2(C)C[C@@H]1[N+]1(C)CCCCC1", "note": "[Pancuronium dibromide]", "imaged cell count per well": "23700 ± 1700"}
{"smiles": "Cn1cc(C2=C(c3cn(C4CCN(Cc5ccccn5)CC4)c4ccccc34)C(=O)NC2=O)c2ccccc21", "imaged cell count per well": "27200 ± 3400"}
{"smiles": "Oc1cccc2cccnc12", "note": "[8-Hydroxyquinoline]", "imaged cell count per well": "22300 ± 1700"}
{"smiles": "CC[C@H]1CN2CC[C@]3(C(=O)Nc4ccccc43)[C@@H]2C[C@@H]1/C(=C\\OC)C(=O)OC", "note": "[Rhynchophylline]", "imaged cell count per well": "21200 ± 6600"}
{"smiles": "CCN(CC)CCOC(=O)C(O)(c1ccccc1)c1ccccc1", "note": "[Benactyzine hydrochloride]", "imaged cell count per well": "18000 ± 10000"}
{"smiles": "CCOC(=O)Nc1ccc(NCc2ccc(F)cc2)cc1N", "note": "[Retigabine 2HCl]", "imaged cell count per well": "27400 ± 6000"}
{"smiles": "N#Cc1nn(-c2c(Cl)cc(C(F)(F)F)cc2Cl)c(N)c1[S+]([O-])C(F)(F)F", "note": "(stereo not given) [Fipronil]", "imaged cell count per well": "25000 ± 7600"}
{"smiles": "CN(C)C(=O)Oc1cccc([N+](C)(C)C)c1", "note": "[Neostigmine Bromide]", "imaged cell count per well": "28200 ± 2700"}
{"smiles": "[O-][n+]1ccccc1[S-].[O-][n+]1ccccc1[S-].[Zn+2]", "note": "[Zinc Pyrithione]", "imaged cell count per well": "845 ± 130"}
{"smiles": "COc1ccc(C=O)cc1", "note": "[p-Anisaldehyde]", "imaged cell count per well": "27600 ± 7800"}
{"smiles": "CC(NC(C)(C)C)C(=O)c1cccc(Cl)c1", "note": "(stereo not given) [Amfebutamone (Bupropion) HCl]", "imaged cell count per well": "19800 ± 9300"}
{"smiles": "CCC1=C[C@H]2CN3CCc4c([nH]c5ccccc45)[C@](C(=O)OC)(C2)[C@H]13", "note": "[Catharanthine]", "imaged cell count per well": "22800 ± 4700"}
{"smiles": "O=[N+]([O-])C(Br)(CO)CO", "note": "[Bronopol]", "imaged cell count per well": "23400 ± 9600"}
{"smiles": "CC(C)=CCOc1c2occc2cc2ccc(=O)oc12", "note": "[Imperatorin]", "imaged cell count per well": "16300 ± 3800"}
{"smiles": "C[N+]1(C)[C@@H]2C[C@@H](OC(=O)[C@H](CO)c3ccccc3)C[C@H]1[C@@H]1O[C@@H]12", "note": "[Methscopolamine]", "imaged cell count per well": "18900 ± 4300"}
{"smiles": "C#C[C@]1(O)C=C[C@H]2[C@@H]3CCC4=CC(=O)CC[C@@H]4[C@H]3CC[C@@]21CC", "note": "[Gestodene]", "imaged cell count per well": "23200 ± 2000"}
{"smiles": "C[C@@H]1O[C@@H](O[C@H]2C[C@@H](O)[C@]3(CO)[C@H]4[C@H](O)C[C@]5(C)[C@@H](C6=CC(=O)OC6)CC[C@]5(O)[C@@H]4CC[C@]3(O)C2)[C@H](O)[C@H](O)[C@H]1O", "note": "[Ouabain]", "imaged cell count per well": "29500 ± 7400"}
{"smiles": "CCCN1C[C@H](CSC)C[C@@H]2c3cccc4[nH]cc(c34)C[C@H]21", "note": "[Pergolide Mesylate]", "imaged cell count per well": "25900 ± 7600"}
{"smiles": "NC(=O)CN1CCCC1=O", "note": "[Piracetam]", "imaged cell count per well": "19800 ± 2000"}
{"smiles": "CN1[C@@H]2C[C@@H](OC(=O)[C@H](CO)c3ccccc3)C[C@H]1[C@@H]1O[C@@H]12", "note": "[Scopolamine HBr]", "imaged cell count per well": "24400 ± 4600"}
{"smiles": "CCOC(=O)Nc1ccc(NCc2ccc(F)cc2)cc1N", "note": "[Retigabine]", "imaged cell count per well": "22000 ± 2500"}
{"smiles": "C[C@@H]1CC[C@H]2[C@@H](C)C(=O)O[C@@H]3O[C@@]4(C)CC[C@@H]1[C@]32OO4", "note": "[Artemisinin]", "imaged cell count per well": "24400 ± 1700"}
{"smiles": "CN1[C@@H]2CC[C@H]1C[C@@H](OC(=O)[C@H](CO)c1ccccc1)C2", "note": "[Hyoscyamine]", "imaged cell count per well": "23000 ± 6900"}
{"smiles": "CN1[C@@H]2CC[C@H]1C[C@@H](OC(=O)C(CO)c1ccccc1)C2", "note": "(stereo not given in full) [Atropine sulfate monohydrate]", "imaged cell count per well": "25200 ± 6200"}
{"smiles": "CC(=O)OCC1=C(C(=O)O)N2C(=O)[C@@H](N)[C@H]2SC1", "note": "[7-Aminocephalosporanic acid]", "imaged cell count per well": "25800 ± 1500"}
{"smiles": "CC(C)(O)C(Cl)(Cl)Cl", "note": "[Chlorobutanol]", "imaged cell count per well": "21300 ± 6700"}
{"smiles": "COc1ccc(C(CN(C)C)C2(O)CCCCC2)cc1", "note": "(stereo not given) [Venlafaxine]", "imaged cell count per well": "26300 ± 7700"}
{"smiles": "COC(=O)C1=CCCN(C)C1", "note": "[Arecoline HBr]", "imaged cell count per well": "21300 ± 4800"}
{"smiles": "Nc1nc(N)nc(NC2CC2)n1", "note": "[Cyromazine]", "imaged cell count per well": "19700 ± 7800"}
{"smiles": "COc1ccc2c(c1)[C@]13CCCC[C@@H]1[C@H](C2)N(C)CC3", "note": "[Dextromethorphan hydrobromide hydrate]", "imaged cell count per well": "18600 ± 13000"}
{"smiles": "CCN(C)C(=O)Oc1cccc([C@H](C)N(C)C)c1", "note": "[Rivastigmine]", "imaged cell count per well": "19300 ± 5700"}
{"smiles": "COc1ccc(C(CN(C)C)C2(O)CCCCC2)cc1", "note": "(stereo not given) [Venlafaxine HCl]", "imaged cell count per well": "26800 ± 1700"}
{"smiles": "COc1ccc2[nH]cc(CCN)c2c1", "note": "[5-Methoxytryptamine]", "imaged cell count per well": "27900 ± 4000"}
{"smiles": "O=c1[nH]c2ccccc2n1CCCN1CCC(n2c(=O)[nH]c3cc(Cl)ccc32)CC1", "note": "[Domperidone]", "imaged cell count per well": "14600 ± 2400"}
{"smiles": "Cc1cc(C(C#N)c2ccc(Cl)cc2)c(Cl)cc1NC(=O)c1cc(I)cc(I)c1O", "note": "(stereo not given) [Closantel Sodium]", "imaged cell count per well": "34000 ± 6200"}
{"smiles": "CC[C@@H](C(N)=O)N1CCCC1=O", "note": "[Levetiracetam]", "imaged cell count per well": "20100 ± 990"}
